Consider 3 substances from paper PMC10348673.

Amino acid sequences for entries named in this document (tags omitted). A change or cut given only in a name is not applied to a line headed by its entry.
UniProt Q92963: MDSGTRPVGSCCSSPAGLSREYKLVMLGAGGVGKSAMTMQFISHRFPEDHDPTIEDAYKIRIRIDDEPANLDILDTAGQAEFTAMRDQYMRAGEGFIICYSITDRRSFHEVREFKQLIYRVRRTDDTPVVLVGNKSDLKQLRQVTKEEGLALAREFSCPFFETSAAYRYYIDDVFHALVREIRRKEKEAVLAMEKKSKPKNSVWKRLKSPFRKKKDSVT
UniProt P15056: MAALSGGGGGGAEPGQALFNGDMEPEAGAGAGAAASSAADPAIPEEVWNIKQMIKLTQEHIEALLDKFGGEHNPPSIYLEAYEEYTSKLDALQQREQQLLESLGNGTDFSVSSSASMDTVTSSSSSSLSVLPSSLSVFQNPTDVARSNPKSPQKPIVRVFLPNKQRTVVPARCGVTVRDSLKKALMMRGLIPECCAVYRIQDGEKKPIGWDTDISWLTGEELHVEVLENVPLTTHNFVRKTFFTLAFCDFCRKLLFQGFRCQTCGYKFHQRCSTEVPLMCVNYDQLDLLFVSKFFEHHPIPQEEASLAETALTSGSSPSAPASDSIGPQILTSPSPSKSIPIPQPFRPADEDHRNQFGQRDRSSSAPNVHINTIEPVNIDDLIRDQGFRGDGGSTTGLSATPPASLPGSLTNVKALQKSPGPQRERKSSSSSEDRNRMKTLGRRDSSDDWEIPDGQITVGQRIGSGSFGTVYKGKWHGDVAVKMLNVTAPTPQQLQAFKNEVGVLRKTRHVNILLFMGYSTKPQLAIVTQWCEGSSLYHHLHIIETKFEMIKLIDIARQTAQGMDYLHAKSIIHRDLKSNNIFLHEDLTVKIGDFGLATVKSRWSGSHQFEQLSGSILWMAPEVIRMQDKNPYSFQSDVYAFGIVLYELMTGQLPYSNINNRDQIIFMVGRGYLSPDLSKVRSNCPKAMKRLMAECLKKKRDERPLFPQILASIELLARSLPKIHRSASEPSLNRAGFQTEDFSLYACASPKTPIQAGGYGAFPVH

No constants are given. Whether binding was seen depends on the method and setting. In cells and extracts the contact can be indirect. Some binding calls cover weakened binding; strength is not graded here. For some assays here: Tags and fused reporters may be left off the sequences shown.

Test [1] has as its target RIT1 wild type (expressed in HEK293T) (UniProt Q92963). In words: pull-down; GST pull-down from lysates of HEK293T cells co-expressing the constructs; Glutathione Sepharose 4B, 4 hours at 4°C; 50 mM tris-HCl pH 7.5, 150 mM NaCl, 1% IGEPAL CA-630, 10% glycerol.
A further test deals with BRAF-nanoLuc (UniProt P15056). Kind of test: FRET or BRET; nanoBRET in intact HEK293T cells; mVenus-RIT1 acceptor titrated (0 to 1000 ng DNA), RAF-nanoLuc donor constant; BRET50 from non-linear fit. (BRET reads energy transfer from a luciferase to a nearby fluorophore.)
The target of the next test is T1, ARAF-nanoLuc (UniProt P10398).
T1 sequence: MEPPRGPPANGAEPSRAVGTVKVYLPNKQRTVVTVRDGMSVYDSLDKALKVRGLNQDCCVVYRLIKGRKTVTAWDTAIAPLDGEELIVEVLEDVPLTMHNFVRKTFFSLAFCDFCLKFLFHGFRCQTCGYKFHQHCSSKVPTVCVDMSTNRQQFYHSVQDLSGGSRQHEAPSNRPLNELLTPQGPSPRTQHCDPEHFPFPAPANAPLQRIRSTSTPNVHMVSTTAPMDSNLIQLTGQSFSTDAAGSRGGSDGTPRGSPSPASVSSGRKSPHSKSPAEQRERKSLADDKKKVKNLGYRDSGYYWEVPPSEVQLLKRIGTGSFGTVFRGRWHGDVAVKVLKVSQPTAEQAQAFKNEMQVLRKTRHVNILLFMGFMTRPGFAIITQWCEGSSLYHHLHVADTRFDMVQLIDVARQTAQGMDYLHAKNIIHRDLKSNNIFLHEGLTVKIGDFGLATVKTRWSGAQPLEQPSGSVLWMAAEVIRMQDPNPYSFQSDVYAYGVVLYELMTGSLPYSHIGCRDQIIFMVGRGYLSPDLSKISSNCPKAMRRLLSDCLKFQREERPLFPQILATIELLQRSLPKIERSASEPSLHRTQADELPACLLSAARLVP
The description is as above.

As for “BRAF (expressed in HEK293T) (from UniProt P15056 1-766)”, the binding entry in test [1] was “binds weakly”.

On to “mVenus-RIT1 (wild type) (from UniProt Q92963 1-219)”, for which the binding entry with BRAF-nanoLuc and with ARAF-nanoLuc was “binds” in each case.

In the case of “mVenus-RIT1 A57G (from UniProt Q92963 1-219)”, the binding result in the test with BRAF-nanoLuc and with ARAF-nanoLuc was “binds” throughout.
